{"source": "paper PMC10102177", "molecules": {"B1": {"name": "Haus8 (protein, UniProt Q0IHJ3 1-367)", "chain": "MSEAGVAPIEDGSQNSSGGSSGDAALKKSKGGAKVVKSRYMQIGRSKVSKNSLANTTVCSGGKVPERGSGGTPTRRSLAPHKAKITAAVPLPALDGSIFTKEDLQSTLLDGHRIARPDLDLSVINDRTLQKITPRPVVTSEQKKPKRDTTPVNLVPEDMVEMIESQTLLLTYLTIKMQKNLFRLEEKAERNLLLVNDQKDQLQETIHMMKRDLTLLQREERLRDLIEKQDEVLTPVVTSKDPFKDNYTTFATALDSTRHQLAIKNIHITGNRHRYLEELQKHLAITKSLLEEIMPSHASENAESFDTIKDLENIVLKTDEELARSFRQILDLSFKVNKEISLQSQKAVEETCESALVRQWYFDGSLP"}, "B2": {"name": "Haus3 (protein, UniProt Q6DCY9 1-597)", "chain": "MSGGDRFVQTLQKLNYPKGAQLDGEDFDWLFEAVDLKPFLDWFCSAASEQNVVPDEKLQAFNTLKESGKPVLDEKALDEVLKTFSISKVPAIEEVAIEKLEEEVKALQKQKNLHIRRRNKLQMVESGNRQMCLKSKDKEEETGRAFQEVLHLLRVTNKKLNHELQSIVNGVQTLMSFFSTPETACELSSQPIFLSQLLLDKYLSLEEQSTAALTSFTKEHFFEGMSKFVEGSDENFQLVQLNVNSFGEDGTTEDKCKEMMRLQLAYICAKHKLIQMKAKSASLKVGLQWAENNASVVQDKASQKEENLKVRITSLKNETLQIENHTNSISNEKLPGLVRDNAQLLNMPIVKGDYDLQMAHQTSCSSRQDLVCDHLMKQKASFELLQLGYELELRKHRDVYRELGSIVQELKESGDKLEERLTMLSDVNLLSASKPRSNIDSKDLTSHRLYQLLDGDNTQKLFRTYDGLESVAQKLSQDIASMRDQLEVSEQEHSLLLSKLDSHLKELRDFMYPEGNTLMLTTPELSGEFHQLGSQLEKLNHITVEILGDLQLKRKMLESNKLQQIEKQLYVYFFQNEEQLKSIVGKLEAQTGGGSSA"}}, "key": {"Haus3 (X. laevis)": {"target": "T1, Haus3 (X. laevis) (UniProt Q6DCY9)", "T1 sequence": "B2 chain", "experiment": "cryo-EM structure; single-particle cryo-EM of the purified augmin octamer (Haus6 1-430), 0.05% NP-40, thin carbon film grids; 6.9 Å map; AlphaFold2-Multimer models of T-II and T-III rigid-body fit into the map; both purified"}, "[1]": {"target": "T2, Haus3 with C-terminal GFP-TwinStrep (X. laevis) (UniProt Q6DCY9)", "T2 sequence": "B2 chain", "experiment": "co-purification of co-expressed subunits (StrepTactin, SEC) + negative stain EM; T-III subunits co-expressed in Sf9, one carrying C-terminal GFP-TwinStrep; StrepTactin Superflow, elution with 2.5 mM d-desthiobiotin, Superose 6 Increase in CSF-XB; 150 nM on carbon grids, 0.75% uranyl acetate, 2D class averages"}, "Haus8 (X. laevis)": {"target": "T3, Haus8 (X. laevis) (UniProt Q0IHJ3)", "T3 sequence": "B1 chain", "experiment": "cryo-EM structure; single-particle cryo-EM of the purified augmin octamer (Haus6 1-430), 0.05% NP-40, thin carbon film grids; 6.9 Å map; AlphaFold2-Multimer models of T-II and T-III rigid-body fit into the map; both purified"}, "Haus2 (X. laevis)": {"target": "Haus2 (X. laevis)", "experiment": "cryo-EM structure; single-particle cryo-EM of the purified augmin octamer (Haus6 1-430), 0.05% NP-40, thin carbon film grids; 6.9 Å map; AlphaFold2-Multimer models of T-II and T-III rigid-body fit into the map; both purified"}, "Haus7 (X. laevis)": {"target": "Haus7 (X. laevis)", "experiment": "cryo-EM structure; single-particle cryo-EM of the purified augmin octamer (Haus6 1-430), 0.05% NP-40, thin carbon film grids; 6.9 Å map; AlphaFold2-Multimer models of T-II and T-III rigid-body fit into the map; both purified"}, "Haus5 (X. laevis)": {"target": "Haus5 (X. laevis)", "experiment": "cryo-EM structure; single-particle cryo-EM of the purified augmin octamer (Haus6 1-430), 0.05% NP-40, thin carbon film grids; 6.9 Å map; AlphaFold2-Multimer models of T-II and T-III rigid-body fit into the map; both purified"}, "[2]": {"target": "Haus1 with C-terminal GFP-TwinStrep (X. laevis)", "experiment": "co-purification of co-expressed subunits (StrepTactin, SEC) + negative stain EM; T-III subunits co-expressed in Sf9, one carrying C-terminal GFP-TwinStrep; StrepTactin Superflow, elution with 2.5 mM d-desthiobiotin, Superose 6 Increase in CSF-XB; 150 nM on carbon grids, 0.75% uranyl acetate, 2D class averages"}, "[3]": {"target": "Haus4 with C-terminal GFP-TwinStrep (X. laevis)", "experiment": "co-purification of co-expressed subunits (StrepTactin, SEC) + negative stain EM; T-III subunits co-expressed in Sf9, one carrying C-terminal GFP-TwinStrep; StrepTactin Superflow, elution with 2.5 mM d-desthiobiotin, Superose 6 Increase in CSF-XB; 150 nM on carbon grids, 0.75% uranyl acetate, 2D class averages"}, "[4]": {"target": "Haus5 with C-terminal GFP-TwinStrep (X. laevis)", "experiment": "co-purification of co-expressed subunits (StrepTactin, SEC) + negative stain EM; T-III subunits co-expressed in Sf9, one carrying C-terminal GFP-TwinStrep; StrepTactin Superflow, elution with 2.5 mM d-desthiobiotin, Superose 6 Increase in CSF-XB; 150 nM on carbon grids, 0.75% uranyl acetate, 2D class averages"}}, "note": "These are yes or no findings as the source states them, for the method shown. A result given as binding can be weak or reduced; the word gives no strength. For part of these data: In cells and extracts the contact can be indirect. For part of these data: Tags and fused reporters may be left off the sequences shown."}
{"molecule": "Haus1 (X. laevis)", "values": [{"measurement": "binding", "setting": "Haus3 (X. laevis)", "result": "binds"}, {"measurement": "binding", "setting": "[1]", "result": "binds"}]}
{"molecule": "Haus4 (X. laevis)", "values": [{"measurement": "binding", "setting": "Haus3 (X. laevis)", "result": "binds"}, {"measurement": "binding", "setting": "[1]", "result": "binds"}]}
{"molecule": "Haus5 (X. laevis)", "values": [{"measurement": "binding", "setting": "[1]", "result": "binds"}]}
{"molecule": "Haus6^1–430 (X. laevis) (domain or fragment)", "values": [{"measurement": "binding", "setting": "Haus8 (X. laevis)", "result": "binds"}]}
{"molecule": "B1", "values": [{"measurement": "binding", "setting": "Haus2 (X. laevis)", "result": "binds"}, {"measurement": "binding", "setting": "Haus7 (X. laevis)", "result": "binds"}]}
{"molecule": "B2", "values": [{"measurement": "binding", "setting": "Haus5 (X. laevis)", "result": "binds"}, {"measurement": "binding", "setting": "[2]", "result": "binds"}, {"measurement": "binding", "setting": "[3]", "result": "binds"}, {"measurement": "binding", "setting": "[4]", "result": "binds"}]}
